Test results published in patent publication US20250090576A1, “METHODS FOR TREATING NONTUBERCULOUS MYCOBACTERIA DISEASES” (Microbion Corporation, priority 2022, published 2025).
At least one structure is not confirmed: it was looked up by name or label, or the drawing left a doubt.

System: M. abscessus biofilm (six clinical isolates)
Test: MBEC assay, summary over six clinical isolates
Type: cell-based
Conditions: at high concentrations (amikacin, clarithromycin: apart from MABS4)
Excerpt: In this study the MBEC assay was followed as described in the Innovotech Procedural Manual, version 2.1 with minor modifications to assess the antibiofilm activity of the antimicrobial compounds under investigation. The MBEC value refers to the Minimum Biofilm Eradication Concentration of each antimicrobial for each strain. The MBEC value is defined as the minimum antibiotic concentration where the optical density (OD) value at recovery is less than 10% of the control OD value and there is no growth observed with visual examination of the wells.
Step 1: Inoculation. For resuscitation, all strains were streaked on TSA plates, except for the mycobacteria which were streaked on 7H10 media, from the frozen stocks, and grew overnight at 37° C. (Table 6). […]
Step 3: Recovery. […] The recovery of resistant cells was assessed by an end-point measurement of the optical density at 600 nm (OD600) for each well with a plate reader (FIG. 4).
This is possibly, in part, due to the variable clumping of the cells observed in the biofilm biomass on the pegs. The clumping of the cells also impacted the OD readings. […] For replicate experiments with variable results, the final MBEC values were determined based on the higher MBEC concentration observed among the replicates.

## C[C@@H](O)[C@H]1C(=O)N2C(C(=O)O)=C(SCCN=CN)C[C@H]12 [Imipenem]
  biofilm susceptibility, in words: resistance
